# Source: the supplement of paper PMC8728848
# The list shows a part of the results.
# B1: PX9961K-bvu-480-28-480 (Bacteroides vulgatus) (protein)
# chain: NKIPTTMAFRTVTDVDNAVNGLYDLMSGSGYYGAAMFAYGDMKGDDMQSSEESGVCNTCYMFNHRPNSLNAGSLWGRPFYILREAWNILNAIAEGKIESGDEKKLNALKGETMAVIALCQFDLTRCFGYPYTKDKGASLGAPLIDHLVGTYENPPRSTVAQAYDFIIETLEEAVTLMSEEKNNGRMNKYAARALLARIYLYHDDNRKAFDLADQLIKDADTSGSYALYPHEKYVAAWSVEAKFGSESFFEIANSVDDTPGRDSWGYLLNWYGYQKGFVTQKYAEQMLADPGDVRGHLLEENKYAGKTVWWLYKLRGTDLKTAPLECNNVVLRLSEVYLIAAEAGCKLGGDAAVQGLGYLNEIVKRGNPDNEVTMADYTLDRVLDERSKELVGEGHRFFDLLRNGKTIVRKGGYHLPSVDEEVDWDFYKCVLPIPEDQFIFSPEMEQNPGYPKN
# Assays:
# Assay in all cases: glycan array binding signal (z-score within array); higher = stronger binding
# Conditions in all cases: glycan notation: IUPAC condensed, linker removed
# [1] = biological target: Gal(b1-3)GlcNAc(b1-2)Man(a1-3)[Gal(b1-3)GlcNAc(b1-2)Man(a1-6)]Man(b1-4)GlcNAc(b1-4)[Fuc(a1-6)]GlcNAc
# Outline: (§1)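 The Consortium for Functional Glycomics database supplied 3228 glycan arrays, of which those lacking an available protein sequence were dropped. The binding signal, a within-array Z-score, was averaged across arrays of the same protein sequence and across linkers. Negative scores can be read as non-binding.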
# [2] = biological target: Gal(b1-3)GlcNAc(b1-2)Man(a1-3)[GlcNAc(b1-4)][Gal(b1-3)GlcNAc(b1-2)Man(a1-6)]Man(b1-4)GlcNAc(b1-4)GlcNAc
# Outline: as §1
# [3] = biological target: Gal(b1-3)GlcNAc(b1-2)[Gal(b1-3)GlcNAc(b1-6)]Man(a1-6)[Gal(b1-3)GlcNAc(b1-2)Man(a1-3)]Man(b1-4)GlcNAc(b1-4)GlcNAc
# Outline: as §1
# [4] = biological target: Gal(b1-3)GlcNAc(b1-3)Gal(b1-3)GlcNAc
# Outline: as §1
# [5] = biological target: Gal(b1-3)GlcNAc(b1-3)Gal(b1-4)Glc
# Outline: as §1
# [6] = biological target: Gal(b1-3)GlcNAc(b1-3)Gal(b1-4)GlcNAc
# Outline: as §1
# [7] = biological target: Gal(b1-3)GlcNAc(b1-3)Gal(b1-4)GlcNAc(b1-2)Man(a1-3)[Gal(b1-3)GlcNAc(b1-3)Gal(b1-4)GlcNAc(b1-2)Man(a1-6)]Man(b1-4)GlcNAc(b1-4)GlcNAc
# Outline: as §1
# [8] = biological target: Gal(b1-3)GlcNAc(b1-3)Gal(b1-4)GlcNAc(b1-2)[Gal(b1-3)GlcNAc(b1-3)Gal(b1-4)GlcNAc(b1-6)]Man(a1-6)[Gal(b1-3)GlcNAc(b1-3)Gal(b1-4)GlcNAc(b1-2)Man(a1-3)]Man(b1-4)GlcNAc(b1-4)[Fuc(a1-6)]GlcNAc
# Outline: as §1
# [9] = biological target: Gal(b1-3)GlcNAc(b1-3)Gal(b1-4)GlcNAc(b1-3)Gal(b1-4)GlcNAc(b1-2)[Gal(b1-3)GlcNAc(b1-3)Gal(b1-4)GlcNAc(b1-3)Gal(b1-4)GlcNAc(b1-6)]Man(a1-6)[Gal(b1-3)GlcNAc(b1-3)Gal(b1-4)GlcNAc(b1-3)Gal(b1-4)GlcNAc(b1-2)Man(a1-3)]Man(b1-4)GlcNAc(b1-4)[Fuc(a1-6)]GlcNAc
# Outline: as §1
# [10] = biological target: Gal(b1-3)GlcNAc(b1-3)Gal(b1-4)GlcNAc(b1-6)[Gal(b1-3)GlcNAc(b1-3)]Gal(b1-4)Glc
# Outline: as §1
# [11] = biological target: Gal(b1-3)GlcNAc(b1-3)Gal(b1-4)[Fuc(a1-3)]GlcNAc
# Outline: as §1
# [12] = biological target: Gal(b1-3)GlcNAc(b1-3)Gal(b1-4)[Fuc(a1-3)]GlcNAc(b1-6)[Gal(b1-3)GlcNAc(b1-3)]Gal(b1-4)Glc
# Outline: as §1
# [13] = biological target: Gal(b1-3)GlcNAc(b1-3)GalNAc
# Outline: as §1
# [14] = biological target: Gal(b1-3)GlcNAc(b1-6)Gal(b1-4)GlcNAc
# Outline: as §1
# [15] = biological target: Gal(b1-3)GlcNAc(b1-6)GalNAc
# Outline: as §1
# [16] = biological target: Gal(b1-3)GlcNAc(b1-6)[Gal(b1-3)]GalNAc
# Outline: as §1
# Gal(b1-3)GlcNAc6S = biological target: Gal(b1-3)GlcNAc6S
# Outline: as §1
# [17] = biological target: Gal(b1-3)[Fuc(a1-4)]GlcNAc
# Outline: as §1
# [18] = biological target: Gal(b1-3)[Fuc(a1-4)]GlcNAc(b1-2)Man
# Outline: as §1
# [19] = biological target: Gal(b1-3)[Fuc(a1-4)]GlcNAc(b1-2)Man(a1-3)[Gal(b1-3)[Fuc(a1-4)]GlcNAc(b1-2)Man(a1-6)]Man(b1-4)GlcNAc(b1-4)[Fuc(a1-6)]GlcNAc
# Outline: as §1
# [20] = biological target: Gal(b1-3)[Fuc(a1-4)]GlcNAc(b1-3)Gal(b1-3)[Fuc(a1-4)]GlcNAc
# Outline: as §1
# [21] = biological target: Gal(b1-3)[Fuc(a1-4)]GlcNAc(b1-3)Gal(b1-4)[Fuc(a1-3)]GlcNAc
# Outline: as §1
# [22] = biological target: Gal(b1-3)[Fuc(a1-4)]GlcNAc(b1-6)GalNAc
# Outline: as §1
# [23] = biological target: Gal(b1-3)[GlcNAc(b1-6)]GalNAc
# Outline: as §1
# [24] = biological target: Gal(b1-3)[Neu5Ac(a2-6)]GalNAc
# Outline: as §1
# [25] = biological target: Gal(b1-3)[Neu5Ac(a2-6)]GlcNAc(b1-4)Gal(b1-4)Glc
# Outline: as §1
# [26] = biological target: Gal(b1-3)[Neu5Ac(b2-6)]GalNAc
# Outline: as §1
# Gal(b1-4)Gal = biological target: Gal(b1-4)Gal
# Outline: as §1
# [27] = biological target: Gal(b1-4)GalNAc(a1-3)[Fuc(a1-2)]Gal(b1-4)GlcNAc
# Outline: as §1
# [28] = biological target: Gal(b1-4)GalNAc(b1-3)[Fuc(a1-2)]Gal(b1-4)GlcNAc
# Outline: as §1
# Gal(b1-4)Glc = biological target: Gal(b1-4)Glc
# Outline: as §1
# Gal(b1-4)Glc6S = biological target: Gal(b1-4)Glc6S
# Outline: as §1
# Gal(b1-4)GlcNAc = biological target: Gal(b1-4)GlcNAc
# Outline: as §1
# [29] = biological target: Gal(b1-4)GlcNAc(a1-6)Gal(b1-4)GlcNAc
# Outline: as §1
# Gal(b1-4)GlcNAc(b1-2)Man = biological target: Gal(b1-4)GlcNAc(b1-2)Man
# Outline: as §1
# [30] = biological target: Gal(b1-4)GlcNAc(b1-2)Man(a1-3)Man(b1-4)GlcNAc(b1-4)GlcNAc
# Outline: as §1
# [31] = biological target: Gal(b1-4)GlcNAc(b1-2)Man(a1-3)[Gal(b1-4)GlcNAc(b1-2)Man(a1-6)]Man(b1-4)GlcNAc(b1-4)GlcNAc
# Outline: as §1
binder,measurement,setting,value
B1,glycan array binding signal (z-score),[1],-0.506
same,glycan array binding signal (z-score),[2],0.411
same,glycan array binding signal (z-score),[3],0.78
same,glycan array binding signal (z-score),[4],-0.178
same,glycan array binding signal (z-score),[5],0.505
same,glycan array binding signal (z-score),[6],-0.427
same,glycan array binding signal (z-score),[7],0.157
same,glycan array binding signal (z-score),[8],1.17
same,glycan array binding signal (z-score),[9],0.451
same,glycan array binding signal (z-score),[10],-0.362
same,glycan array binding signal (z-score),[11],-0.351
same,glycan array binding signal (z-score),[12],-0.479
same,glycan array binding signal (z-score),[13],-0.178
same,glycan array binding signal (z-score),[14],-0.025
same,glycan array binding signal (z-score),[15],-1.11
same,glycan array binding signal (z-score),[16],-0.641
same,glycan array binding signal (z-score),Gal(b1-3)GlcNAc6S,-1.05
same,glycan array binding signal (z-score),[17],0.475
same,glycan array binding signal (z-score),[18],0.872
same,glycan array binding signal (z-score),[19],0.986
same,glycan array binding signal (z-score),[20],-0.658
same,glycan array binding signal (z-score),[21],0.065
same,glycan array binding signal (z-score),[22],0.058
same,glycan array binding signal (z-score),[23],0.036
same,glycan array binding signal (z-score),[24],-0.758
same,glycan array binding signal (z-score),[25],-0.858
same,glycan array binding signal (z-score),[26],-0.345
same,glycan array binding signal (z-score),Gal(b1-4)Gal,-0.623
same,glycan array binding signal (z-score),[27],-0.623
same,glycan array binding signal (z-score),[28],-0.265
same,glycan array binding signal (z-score),Gal(b1-4)Glc,-0.177
same,glycan array binding signal (z-score),Gal(b1-4)Glc6S,0.867
same,glycan array binding signal (z-score),Gal(b1-4)GlcNAc,-0.016
same,glycan array binding signal (z-score),[29],-0.426
same,glycan array binding signal (z-score),Gal(b1-4)GlcNAc(b1-2)Man,-0.364
same,glycan array binding signal (z-score),[30],-0.19
same,glycan array binding signal (z-score),[31],-0.34

# Given as tab-separated lines: entries from further up.
binder	measurement	setting	value
B1	glycan array binding signal (z-score)	[9]	0.451
same	glycan array binding signal (z-score)	[10]	-0.362
